{"source": "paper PMC12040169", "about": "(PLOS Biology, 2025)", "note": "The list shows a part of the results.", "data": [{"tested_on": "T1, CTL2-GFP (C. trachomatis L2/434/Bu, GFP-expressing)", "T1 construct": "L2/434/Bu, GFP-expressing", "parameters": "species or system HeLa; Intracellular C. trachomatis growth in HeLa cells, bulk GFP fluorescence relative to DMSO", "details": "bulk GFP, single well; 28.5 h, 10 µM; inhibitor", "units": {"% of control remaining": "%"}, "values": [{"smiles": "CN(C)c1nc(-c2ccc3c(c2)CCCN3S(C)(=O)=O)cs1", "note": "[CBK305016]", "% of control remaining": 109.395}, {"smiles": "COc1ccc(OC)c(NC(=O)CNC(=O)c2ccc(C)cc2)c1", "note": "[CBK268881]", "% of control remaining": 105.744}, {"smiles": "CC1Cc2cc(C(O)CN3CCCC3)ccc2N1C(=O)C1CC1", "note": "(stereo not shown) [CBK286440]", "% of control remaining": 129.405}, {"smiles": "Cc1ccc(S(=O)(=O)c2cccc(S(=O)(=O)N3CCCCC3)c2)cc1S(=O)(=O)N1CCCCC1", "note": "[CBK262207]", "% of control remaining": 91.025}, {"smiles": "Cc1cccnc1NC(=O)c1ccc(NC(C)C)c([N+](=O)[O-])c1", "note": "[CBK269494]", "% of control remaining": 130.355}, {"smiles": "CS(=O)(=O)N1CCC2(CC1)Cn1c(cc3ccccc31)C(=O)O2", "note": "[CBK282820]", "% of control remaining": 119.39}, {"smiles": "S=C(Nc1ccccc1)Nc1nc2ccccc2n1CCOc1ccccc1", "note": "[CBK265487]", "% of control remaining": 98.9311}, {"smiles": "O=c1oc2cc(S(=O)(=O)NCc3ccco3)ccc2c2ccc(S(=O)(=O)NCc3ccco3)cc12", "note": "[CBK267177]", "% of control remaining": 139.944}, {"smiles": "Nc1ncc(-c2ccco2)nc1-c1ccc(C(=O)NCCO)cc1", "note": "[CBK064124]", "% of control remaining": 183.013}, {"smiles": "CCOC(=O)c1c(-c2ccc(OC)cc2)noc1C(=O)c1ccccc1", "note": "[CBK002295]", "% of control remaining": 93.398}, {"smiles": "Cc1cccc(-c2nnc(-c3ccc(NC(=O)CSCc4ccccc4)cc3)o2)c1", "note": "[CBK266775]", "% of control remaining": 116.193}, {"smiles": "C1=CCC(CN2CCN(C3CCN(Cc4ccccc4)CC3)CC2)CC1", "note": "(stereo not shown) [CBK263469]", "% of control remaining": 90.939}, {"smiles": "O=C(CCn1c(C(F)F)cc2cccnc21)NC1CCCCC1", "note": "[CBK285064]", "% of control remaining": 120.935}, {"smiles": "CCc1nn2c(=O)cc(CNc3ccc4c(c3)OCCO4)nc2s1", "note": "[CBK297787]", "% of control remaining": 90.0791}, {"smiles": "CC(C)(C)S(=O)(=O)Nc1nccnc1-c1cccs1", "note": "[CBK050765]", "% of control remaining": 87.105}, {"smiles": "O=C(CCc1cccnc1)NC1CCCC1", "note": "[CBK200239]", "% of control remaining": 116.173}, {"smiles": "CC(C)c1nnc(C2(c3ccc(Br)cc3)CCOCC2)o1", "note": "[CBK306230]", "% of control remaining": 133.822}, {"smiles": "COc1cccc(C2C(C(=O)c3ccc(Br)cc3)=C(O)C(=O)N2CCCN(C)C)c1", "note": "(stereo not shown) [CBK264921]", "% of control remaining": 100}, {"smiles": "COc1ccc(C(C)C)cc1-c1cnc2[nH]c(=O)n(C3CC3)c2n1", "note": "[CBK064915]", "% of control remaining": 182.098}, {"smiles": "CCN(CC)C(=O)Cn1nc2c(C)cc3cc(C)ccc3n2c1=O", "note": "[CBK283871]", "% of control remaining": 140.032}, {"smiles": "O=C(Nc1nnc(C2=COCCO2)o1)c1cc(Cl)cc(Cl)c1", "note": "[CBK287418]", "% of control remaining": 142.067}, {"smiles": "COc1ccc2c(c1)C1(CC(=O)N(CC(=O)N(C)OC)C1=O)C(=O)N2CCCCOc1ccccc1", "note": "(stereo not shown) [CBK076032]", "% of control remaining": 145.508}, {"smiles": "CSc1ncc(Cl)c(C(=O)Nc2nnc(SC/C=C/c3ccccc3)s2)n1", "note": "[CBK268691]", "% of control remaining": 139.453}, {"smiles": "COc1ccc(-c2c(C)nc(N)nc2-c2ccc(OC)cc2O)cc1", "note": "[CBK288186]", "% of control remaining": 121.428}, {"smiles": "Cc1noc(C)c1C(=O)N1C2CCC1CC(c1ccc(F)cc1)C2", "note": "(stereo not shown) [CBK283738]", "% of control remaining": 106.496}, {"smiles": "COc1cnc(-c2cnn(C)c2)c(NC(=O)C2CC2)n1", "note": "[CBK145328]", "% of control remaining": 110.301}, {"smiles": "Cc1cc(CS(=O)(=O)N2CCOCC2c2cccc(F)c2)no1", "note": "(stereo not shown) [CBK304093]", "% of control remaining": 148.508}, {"smiles": "O=C(Nc1cc(Cl)cc(Cl)c1)c1ccc([N+](=O)[O-])s1", "note": "[CBK066840]", "% of control remaining": 94.46}, {"smiles": "COc1cc(C(=O)Oc2cccc(Nc3ncnc4ccccc34)c2)cc(OC)c1OC", "note": "[CBK264908]", "% of control remaining": 93.2228}, {"smiles": "C[C@H](Nc1cncc(-c2cccs2)n1)c1ccccc1", "note": "[CBK065719]", "% of control remaining": 104.427}, {"smiles": "CCc1c(C)nc(C)nc1N1CCCn2nc(C(O)C3CC3)cc2C1", "note": "(stereo not shown) [CBK306778]", "% of control remaining": 87.827}, {"smiles": "CCN(CC(=O)NC(C)(C)C)Cc1nc(-c2cccc(Br)c2)no1", "note": "[CBK304230]", "% of control remaining": 92.4997}, {"smiles": "CCC(C)(Sc1nc(C)ccc1C#N)C(=O)O", "note": "(stereo not shown) [CBK287098]", "% of control remaining": 101.971}, {"smiles": "CN(CC(=O)O)C(=O)OCc1ccccc1", "note": "[CBK012752]", "% of control remaining": 111.627}, {"smiles": "CCCCC(c1cccnc1)N(C)C(=O)CCc1ccnn1C", "note": "(stereo not shown) [CBK306664]", "% of control remaining": 90.7649}, {"smiles": "COc1cc(-c2cnc(N)c(NCC(C)(C)CO)n2)cc(OC)c1OC", "note": "[CBK063523]", "% of control remaining": 106.753}, {"smiles": "O=C(Nc1sc2c(c1C(=O)NCc1ccco1)CCCC2)c1sc2ccccc2c1Cl", "note": "[CBK265086]", "% of control remaining": 100}, {"smiles": "O=C(Nc1ccncc1)c1snnc1-c1ccccc1", "note": "[CBK287982]", "% of control remaining": 131.294}, {"smiles": "COCc1cc2n[nH]c(=O)n2c(-c2ccccc2)n1", "note": "[CBK288507]", "% of control remaining": 94.1774}, {"smiles": "CCNS(=O)(=O)c1ccc(Cn2nc(NC(=O)C3COc4ccccc4O3)c3ccccc32)cc1", "note": "(stereo not shown) [CBK061613]", "% of control remaining": 75.8}, {"smiles": "Cn1c([C@H]2CCN(C(=O)c3cnccn3)C2)nc2ccccc21", "note": "[CBK289416]", "% of control remaining": 115.896}, {"smiles": "COc1cccc(CNc2ccc(C3c4ccsc4CCN3C(C)=O)cc2)c1", "note": "(stereo not shown) [CBK286443]", "% of control remaining": 106.826}, {"smiles": "CCn1cc(CN2CCCCCC2c2cc(C)on2)c(C)n1", "note": "(stereo not shown) [CBK282140]", "% of control remaining": 146.278}, {"smiles": "CCCn1c(SC(C)C(=O)N2CCOCC2)nc2ccc(Br)cc2c1=O", "note": "(stereo not shown) [CBK305020]", "% of control remaining": 120.628}, {"smiles": "CC(C(=O)NCCC1=CCCCC1)N1CCOC(Cn2cccn2)C1", "note": "(stereo not shown) [CBK305319]", "% of control remaining": 119.134}, {"smiles": "O=C(c1ccc(S(=O)(=O)c2ccc(F)cc2)c([N+](=O)[O-])c1)N1CCCCCC1", "note": "[CBK294453]", "% of control remaining": 89.5223}, {"smiles": "Cc1ccn2cc(C(=O)NCCSc3nccn3C)nc2c1", "note": "[CBK281417]", "% of control remaining": 95.7187}, {"smiles": "CCC1CCc2c(sc(NC(=O)c3cnccn3)c2C(N)=O)C1", "note": "(stereo not shown) [CBK262649]", "% of control remaining": 111.866}, {"smiles": "CNS(=O)(=O)c1cccc(C(=O)N(C)Cc2ccsc2)c1", "note": "[CBK303993]", "% of control remaining": 89.8593}, {"smiles": "COc1ccccc1-c1cnc(N)c(N[C@@H](C)c2ccccc2)n1", "note": "[CBK063721]", "% of control remaining": 140.072}, {"smiles": "O=C(c1ccc2ccccc2n1)N1CCc2ccccc21", "note": "[CBK200404]", "% of control remaining": 134.879}, {"smiles": "CCc1nnc(NS(=O)(=O)c2ccc(NCc3cc(Cl)cc(Cl)c3O)cc2)s1", "note": "[CBK126494]", "% of control remaining": 101.905}, {"smiles": "Cc1ccc2cn[nH]c2c1", "note": "[CBK016109]", "% of control remaining": 88.0748}, {"smiles": "CCOc1cc(C(c2c[nH]c3ccccc23)c2c[nH]c3ccccc23)ccc1OCC(=O)O", "note": "[CBK264450]", "% of control remaining": 121.26}, {"smiles": "CCc1noc(C)c1C(=O)NCCN1CC(C)CC(C)C1", "note": "(stereo not shown) [CBK282081]", "% of control remaining": 88.0769}, {"smiles": "Cc1cc(C)nc(Nc2n[nH]c(-c3cccc4ccccc34)n2)n1", "note": "[CBK266451]", "% of control remaining": 197.151}, {"smiles": "C=CCNC(=O)CN1CCC(c2ccc(OC)cc2)CC1", "note": "[CBK283560]", "% of control remaining": 91.8419}, {"smiles": "CCCC/C=C/c1ccc(Nc2ccc(N3CCOCC3)cc2)nc1", "note": "[CBK036886]", "% of control remaining": 95.5607}, {"smiles": "O=C(N[C@H]1CO[C@H]2[C@@H]1OC[C@@H]2n1cc(-c2ccccn2)nn1)c1ccc(C(F)(F)F)cc1", "note": "[CBK289507]", "% of control remaining": 99.8837}, {"smiles": "COc1ccc(C)cc1NC(=O)CN(c1ccccc1)S(=O)(=O)c1ccc(F)cc1", "note": "[CBK268223]", "% of control remaining": 94.7105}, {"smiles": "CN(C)c1ccc(-c2nccnc2NCC(O)COc2ccccc2)cc1", "note": "(stereo not shown) [CBK036928]", "% of control remaining": 129.991}, {"smiles": "C[C@]12CN(Cc3ccccc3)C[C@H]1NC(=O)c1ccccc1C2=O", "note": "[CBK284703]", "% of control remaining": 139.886}, {"smiles": "COc1ccc(NCc2cc(=O)oc3cc4c(cc23)CCC4)cn1", "note": "[CBK235362]", "% of control remaining": 100}, {"smiles": "CCOC(=O)CC(C)NS(=O)(=O)c1ccc(OC(F)(F)F)cc1", "note": "(stereo not shown) [CBK044954]", "% of control remaining": 136.568}, {"smiles": "COC(=O)[C@@H]1Cc2ncn(C(C)C)c2CN1C(=O)c1ccccc1", "note": "[CBK288987]", "% of control remaining": 136.975}, {"smiles": "Cc1nn(C)c(C)c1CCC(=O)NCC1CN(c2ccccc2)CCO1", "note": "(stereo not shown) [CBK307199]", "% of control remaining": 144.009}, {"smiles": "Cc1cc(COc2ccnc(N3CCCN(CC4CC4)CC3)n2)no1", "note": "[CBK084073]", "% of control remaining": 122.115}, {"smiles": "Cc1nn(CC(=O)N(C)CCCc2nccn2C)c(=O)c2ccccc12", "note": "[CBK307087]", "% of control remaining": 138.845}, {"smiles": "Cc1ccc(NC(=O)c2cc(NC(=O)C3CC=CCC3C(=O)O)ccc2N2CCOCC2)cc1Cl", "note": "(stereo not shown) [CBK265323]", "% of control remaining": 106.831}, {"smiles": "Cn1nc(C2CCN(C(=O)C3CCCCC3)CC2)c2cccnc21", "note": "[CBK284897]", "% of control remaining": 122.689}, {"smiles": "Cc1ccc(C)c(-c2nc(-c3cccnc3)no2)c1", "note": "[CBK288018]", "% of control remaining": 90.6036}, {"smiles": "Cc1nnc(N/N=C/c2ccc(OC3CCCC3)cc2)nc1O", "note": "[CBK058025]", "% of control remaining": 104.364}, {"smiles": "O=C(CO)N1CC2(CCN(CC3COc4ccccc4O3)CC2)c2ccccc21", "note": "(stereo not shown) [CBK143951]", "% of control remaining": 125.922}, {"smiles": "COc1cc(/C=C2\\SC(=N)NC2=O)cc(Br)c1OS(=O)(=O)c1ccc(C)cc1", "note": "[CBK263609]", "% of control remaining": 125.715}, {"smiles": "CN(C)c1ncc(Br)cc1C(=O)NCCNS(=O)(=O)c1ccccc1", "note": "[CBK076504]", "% of control remaining": 108.169}, {"smiles": "COc1cccc(C(=O)N2CCC(NC(=O)c3cc(F)ccc3F)CC2)c1", "note": "[CBK155026]", "% of control remaining": 105.867}, {"smiles": "CC(C)(C)CN1CCC(Oc2nccnc2OCc2ccc(Br)cc2F)CC1", "note": "[CBK161946]", "% of control remaining": 123.67}, {"smiles": "O=C(N/N=C\\C=C\\c1ccco1)c1ccc([N+](=O)[O-])cc1", "note": "[CBK261961]", "% of control remaining": 101.272}, {"smiles": "Cc1c(C)n(Cc2cccnc2)c2ncn(C3CCCCCC3)c(=N)c12", "note": "[CBK287932]", "% of control remaining": 114.35}]}]}
